Values are animals surviving of animals treated; these mice carried no tumour. Survivors were counted at the toxicity check, usually on the fifth day, unless a day is given; later deaths do not show. Schedule codes are those of the source, read here as Q, the interval in days (D) or hours (H), X, the number of doses. Some entries hold several experiments; their values stand side by side, smallest first. Some schedules carry Z or #; the key to these is not given. Starred links: 1 amine or outer side, 2 acyl side, 3 side chain; linkers in the order of their positions; H or OH if unused. Positions of bridges follow the written chain, without caps; N, C: chain ends. Non-standard residues stand in square brackets, D forms with d. Residues, ends and D or L forms follow the SMILES beside them. Chains are numbered I, II in the order given. Actinocin(9to1) = Cc1c2oc3c(C)ccc(C(=O)[*:1])c3nc-2c(C(=O)[*:2])c(N)c1=O; aThr = C[C@H](O)[C@H](N)C(=O)O; NMeV = CN[C@H](C(=O)O)C(C)C; Sar = CNCC(=O)O
System: B6D2F1 mice, nontumored toxicity test, survival
Test: NCI In Vivo Anticancer Drug Screen. Data for tumor model Nontumored Animals (Toxicity Test) in B6D2F1 (BDF1) mice

Compound: Cc1c2oc3c(C)ccc(C(=O)N[C@@H]4C(=O)N[C@H](C(C)C)C(=O)N5CCC[C@H]5C(=O)N(C)CC(=O)N(C)[C@@H](C(C)C)C(=O)O[C@H]4C)c3nc-2c(C(=O)N[C@@H]2C(=O)N[C@H](C(C)C)C(=O)N3CCC[C@H]3C(=O)N(C)CC(=O)N(C)[C@@H](C(C)C)C(=O)O[C@H]2C)c(N)c1=O (I: [aThr][dV]P[Sar][NMeV] / II: [aThr][dV]P[Sar][NMeV]; ester I:1-I:C, II:1-II:C; linker I:N-II:N via Actinocin(9to1))
- survivor count (dose: 0.01 mg/kg/injection, schedule: Q01DX009 (ip), vehicle: saline): 5 of 5
- survivor count (dose: 0.02 mg/kg/injection, schedule: Q01DX009 (ip), vehicle: saline): 5 of 5
- survivor count (dose: 0.03 mg/kg/injection, schedule: Q01DX009 (ip), vehicle: saline): 5 of 5
- survivor count (dose: 0.03 mg/kg/injection, schedule: Q04DX003 (ip), vehicle: water): 8 of 8
- survivor count (dose: 0.05 mg/kg/injection, schedule: Q01DX009 (ip), vehicle: saline): 5 of 5
- survivor count (dose: 0.05 mg/kg/injection, schedule: Q04DX003 (ip), vehicle: saline): 4 of 4
- survivor count (dose: 0.05 mg/kg/injection, schedule: Q04DX003 (ip), vehicle: water): 4 of 4
- survivor count (dose: 0.06 mg/kg/injection, schedule: Q01DX001 (ip), vehicle: water): 8 of 8
- survivor count (dose: 0.06 mg/kg/injection, schedule: Q04DX003 (ip), vehicle: water): 8 of 8
- survivor count (dose: 0.06 mg/kg/injection, schedule: Q08DX002 (ip), vehicle: water): 8 of 8
- survivor count (dose: 0.1 mg/kg/injection, schedule: Q04DX003 (ip), vehicle: saline): 4 of 4
- survivor count (dose: 0.1 mg/kg/injection, schedule: Q04DX003 (ip), vehicle: water): 4 of 4
- survivor count (dose: 0.12 mg/kg/injection, schedule: Q01DX001 (ip), vehicle: water): 8 of 8
- survivor count (dose: 0.12 mg/kg/injection, schedule: Q04DX003 (ip), vehicle: water): 8 of 8
- survivor count (dose: 0.12 mg/kg/injection, schedule: Q08DX002 (ip), vehicle: water): 8 of 8
- survivor count (dose: 0.13 mg/kg/injection, schedule: Q01DX001 (ip), vehicle: saline): 4 of 4
- survivor count (dose: 0.2 mg/kg/injection, schedule: Q04DX003 (ip), vehicle: saline): 4 of 4
- survivor count (dose: 0.2 mg/kg/injection, schedule: Q04DX003 (ip), vehicle: water): 4 of 4
- survivor count (dose: 0.25 mg/kg/injection, schedule: Q01DX001 (ip), vehicle: saline): 4 of 4
- survivor count (dose: 0.25 mg/kg/injection, schedule: Q01DX001 (ip), vehicle: water): 8 of 8
- survivor count (dose: 0.25 mg/kg/injection, schedule: Q04DX003 (ip), vehicle: water): 8 of 8
- survivor count (dose: 0.25 mg/kg/injection, schedule: Q08DX002 (ip), vehicle: water): 8 of 8
- survivor count (dose: 0.33 mg/kg/injection, schedule: Q01DX001 (ip), vehicle: saline): 10 of 10
- survivor count (dose: 0.4 mg/kg/injection, schedule: Q04DX003 (ip), vehicle: saline): 4 of 4
- survivor count (dose: 0.4 mg/kg/injection, schedule: Q04DX003 (ip), vehicle: water): 4 of 4
- survivor count (dose: 0.5 mg/kg/injection, schedule: Q01DX001 (ip), vehicle: saline): 10 of 10 and 4 of 4
- survivor count (dose: 0.5 mg/kg/injection, schedule: Q01DX001 (ip), vehicle: water): 8 of 8
- survivor count (dose: 0.5 mg/kg/injection, schedule: Q04DX003 (ip), vehicle: water): 8 of 8
- survivor count (dose: 0.5 mg/kg/injection, schedule: Q08DX002 (ip), vehicle: water): 8 of 8
- survivor count (dose: 0.75 mg/kg/injection, schedule: Q01DX001 (ip), vehicle: saline): 10 of 10
- survivor count (dose: 1.0 mg/kg/injection, schedule: Q01DX001 (ip), vehicle: saline): 2 of 3
- survivor count (dose: 1.0 mg/kg/injection, schedule: Q01DX001 (ip), vehicle: water): 1 of 8
- survivor count (dose: 1.0 mg/kg/injection, schedule: Q04DX003 (ip), vehicle: water): 2 of 8
- survivor count (dose: 1.0 mg/kg/injection, schedule: Q08DX002 (ip), vehicle: water): 0 of 8
- survivor count (dose: 62.0 mg/kg/injection, schedule: Q03HX008 (ip), vehicle: water): 7 of 8
- survivor count (dose: 1.0 micrograms/kg/injection, schedule: Q06HX024 (ip), vehicle: saline): 8 of 8
- survivor count (dose: 2.0 micrograms/kg/injection, schedule: Q06HX024 (ip), vehicle: saline): 8 of 8
- survivor count (dose: 4.0 micrograms/kg/injection, schedule: Q01DX009 (ip), vehicle: clinical formulation): 8 of 8
- survivor count (dose: 4.0 micrograms/kg/injection, schedule: Q01DX009 (ip), vehicle: saline): 8 of 8
- survivor count (dose: 4.0 micrograms/kg/injection, schedule: Q03HX016 (ip), vehicle: water): 8 of 8
- survivor count (dose: 4.0 micrograms/kg/injection, schedule: Q06HX024 (ip), vehicle: saline): 7 of 8
- survivor count (dose: 8.0 micrograms/kg/injection, schedule: Q01DX009 (ip), vehicle: clinical formulation): 8 of 8
- survivor count (dose: 8.0 micrograms/kg/injection, schedule: Q01DX009 (ip), vehicle: saline): 8 of 8
- survivor count (dose: 8.0 micrograms/kg/injection, schedule: Q01DX009 (ip), vehicle: water): 8 of 8
- survivor count (dose: 8.0 micrograms/kg/injection, schedule: Q03HX008 (ip), vehicle: water): 8 of 8
- survivor count (dose: 8.0 micrograms/kg/injection, schedule: Q03HX016 (ip), vehicle: water): 8 of 8
- survivor count (dose: 8.0 micrograms/kg/injection, schedule: Q06HX024 (ip), vehicle: saline): 8 of 8
- survivor count (dose: 16.0 micrograms/kg/injection, schedule: Q01DX009 (ip), vehicle: water): 8 of 8
- survivor count (dose: 16.0 micrograms/kg/injection, schedule: Q03HX008 (ip), vehicle: water): 8 of 8
- survivor count (dose: 16.0 micrograms/kg/injection, schedule: Q03HX016 (ip), vehicle: water): 8 of 8
- survivor count (dose: 16.0 micrograms/kg/injection, schedule: Q06HX024 (ip), vehicle: saline): 8 of 8
- survivor count (dose: 17.0 micrograms/kg/injection, schedule: Q01DX009 (ip), vehicle: clinical formulation): 8 of 8
- survivor count (dose: 17.0 micrograms/kg/injection, schedule: Q01DX009 (ip), vehicle: saline): 8 of 8
- survivor count (dose: 31.0 micrograms/kg/injection, schedule: Q01DX009 (ip), vehicle: water): 8 of 8
- survivor count (dose: 31.0 micrograms/kg/injection, schedule: Q03HX008 (ip), vehicle: water): 8 of 8
- survivor count (dose: 31.0 micrograms/kg/injection, schedule: Q03HX016 (ip), vehicle: water): 8 of 8
- survivor count (dose: 32.0 micrograms/kg/injection, schedule: Q01DX009 (ip), vehicle: clinical formulation): 8 of 8
- survivor count (dose: 32.0 micrograms/kg/injection, schedule: Q01DX009 (ip), vehicle: saline): 8 of 8
- survivor count (dose: 32.0 micrograms/kg/injection, schedule: Q06HX024 (ip), vehicle: saline): 8 of 8
- survivor count (dose: 62.0 micrograms/kg/injection, schedule: Q01DX009 (ip), vehicle: water): 8 of 8
- survivor count (dose: 62.0 micrograms/kg/injection, schedule: Q03HX016 (ip), vehicle: water): 5 of 8
- survivor count (dose: 64.0 micrograms/kg/injection, schedule: Q01DX001 (ip), vehicle: clinical formulation): 8 of 8
- survivor count (dose: 64.0 micrograms/kg/injection, schedule: Q01DX001 (ip), vehicle: saline): 8 of 8
- survivor count (dose: 64.0 micrograms/kg/injection, schedule: Q01DX009 (ip), vehicle: clinical formulation): 8 of 8
- survivor count (dose: 64.0 micrograms/kg/injection, schedule: Q01DX009 (ip), vehicle: saline): 8 of 8
- survivor count (dose: 64.0 micrograms/kg/injection, schedule: Q06HX024 (ip), vehicle: saline): 6 of 8
- survivor count (dose: 125.0 micrograms/kg/injection, schedule: Q01DX009 (ip), vehicle: water): 8 of 8
- survivor count (dose: 125.0 micrograms/kg/injection, schedule: Q03HX008 (ip), vehicle: water): 0 of 8
- survivor count (dose: 125.0 micrograms/kg/injection, schedule: Q03HX016 (ip), vehicle: water): 0 of 8
- survivor count (dose: 128.0 micrograms/kg/injection, schedule: Q01DX001 (ip), vehicle: clinical formulation): 8 of 8
- survivor count (dose: 128.0 micrograms/kg/injection, schedule: Q01DX001 (ip), vehicle: saline): 8 of 8
- survivor count (dose: 128.0 micrograms/kg/injection, schedule: Q01DX009 (ip), vehicle: clinical formulation): 8 of 8
- survivor count (dose: 128.0 micrograms/kg/injection, schedule: Q01DX009 (ip), vehicle: saline): 6 of 8
- survivor count (dose: 250.0 micrograms/kg/injection, schedule: Q01DX009 (ip), vehicle: water): 3 of 8
- survivor count (dose: 256.0 micrograms/kg/injection, schedule: Q01DX001 (ip), vehicle: clinical formulation): 8 of 8
- survivor count (dose: 256.0 micrograms/kg/injection, schedule: Q01DX001 (ip), vehicle: saline): 8 of 8
- survivor count (dose: 512.0 micrograms/kg/injection, schedule: Q01DX001 (ip), vehicle: clinical formulation): 8 of 8
- survivor count (dose: 512.0 micrograms/kg/injection, schedule: Q01DX001 (ip), vehicle: saline): 8 of 8

Compound: Nc1n[nH]c(N)n1
- survivor count (dose: 100.0 mg/kg/injection, schedule: Q## X004 (ip), vehicle: water): 8 of 8
- survivor count (dose: 200.0 mg/kg/injection, schedule: Q## X004 (ip), vehicle: water): 8 of 8
- survivor count (dose: 400.0 mg/kg/injection, schedule: Q## X004 (ip), vehicle: water): 8 of 8
- survivor count (dose: 800.0 mg/kg/injection, schedule: Q## X004 (ip), vehicle: water): 8 of 8
- survivor count (dose: 1600.0 mg/kg/injection, schedule: Q## X004 (ip), vehicle: water): 8 of 8
- survivor count (dose: 3200.0 mg/kg/injection, schedule: Q## X004 (ip), vehicle: water): 7 of 8

Source: PubChem BioAssay AID186 (DTP/NCI, 2004)
